System: sulfhydryl (—SH) groups within the gastric H, K-ATPase system
Experiment: quantitation of sulfhydryl groups during Zn inhibition
Assay type: binding

SMILES: [Zn+2] [Zn, Zinc]
- critical —SH groups involved in Zn inhibition: about 3 per mole of the enzyme
- sulfhydryl (—SH) group bound (Zn at 2 μM): about 16 n Moles per mg of membrane pro

Source: US20120237566A1, “INHIBITING STOMACH-ACID RELEASE, REDUCING INFLAMMATION AND PREVENTING AND TREATING CANCER: COMPOSITIONS AND METHODS OF USE” (Venture Isles, LLC, priority 2011, published 2012)
